Data on 1 compound can be found in US20220249687A1, “BIS(2-HALOACETAMIDO)-COMPOUNDS FOR USE AS LINKING AGENTS AND RESULTANT PRODUCTS WHICH COMPRISE ANTIBODIES, HALF-ANTIBODIES AND ANTIBODY FRAGMENTS” (THE UNIVERSITY OF BATH, priority 2019, published 2022).

The subject of this data set is Trastuzumab. Put plainly: SDS-PAGE analysis of cross-linking of fully reduced Tmab with linker compounds. To be noted: fully reduced Tmab (4 equiv. TCEP), 2 equiv. linker, room temperature overnight, SDS-PAGE and protein MS.

As for `[N-]=[N+]=NCCOCCOCCOCCNC(=O)c1ccc(NC(=O)CI)c(NC(=O)CI)c1` [Compound 17, N,N′-(4-((2-(2-(2-(2-azidoethoxy)ethoxy)ethoxy)ethyl)carbamoyl)-1,2-phenylene)bis(2-iodoacetamide)], the “regioselectivity of bridging (intra-HC vs HC-LC)” value was “greater preference to cross-link heavy-light disulfide bonds”.
